Measured values from patent US12559454B2, “Benzenesulfonamide derivatives and uses thereof” (2692372 Ontario, Inc., priority 2019, dated 2026).

System: normal pooled human fibroblasts
Test: Viability of normal pooled human fibroblasts (Example G1)
Details: IC50 human fibroblasts/IC50 RL cells

## Nc1ncnc2c1c(-c1ccc(Oc3ccccc3)cc1)nn2[C@@H]1CCCN(S(=O)(=O)c2c(F)c(F)c(F)c(F)c2OC2CC2)C1 [I-A6, (R)-1-(1-((2-cyclopropoxy-3,4,5,6-tetrafluorophenyl)sulfonyl)piperidin-3-yl)-3-(4-phenoxyphenyl)-1H-pyrazolo[3,4-d]pyrimidin-4-amine]
  therapeutic index (TI): > 25

## Nc1ncnc2c1c(-c1ccc(Oc3ccccc3)cc1)nn2[C@@H]1CCCN(S(=O)(=O)c2c(F)c(F)c(F)c(F)c2F)C1 [I-A1, (R)-1-(1-((perfluorophenyl)sulfonyl)piperidin-3-yl)-3-(4-phenoxyphenyl)-1H-pyrazolo[3,4-d]pyrimidin-4-amine]
  therapeutic index (TI): 2.5
